The nature of data set [1]: Electrode potential by differential pulse voltammetry under the conditions of table 1. It counts as physicochemical. The following applies: comparison of FIGS. 12(c) and 3(c).
For data set [2], the system named is elastase. In words: Digestion of Fc-BSA with elastase, differential pulse voltammetry. In kind it is biochemical. On the procedure:
(§1) Protease assays were performed as follows unless stated otherwise. […] Samples were incubated at 37° C. for 1 hour.
A digestion of Fc-BSA with elastase was carried out as described above. […] The positive reaction has a peak position of 430 mV and a peak height of 2.57×10^−7 A; the no elastase control reaction has a peak position of 432 mV and a peak height of 2.55×10^−8 A.

The test system of data set [3] is carboxypeptidase. Kind of data set: Digestion of Fc-BSA with carboxypeptidase, differential pulse voltammetry. It counts as biochemical. The procedure: as §1
A digestion of Fc-BSA with carboxypeptidase was carried out as described above. […] The positive reaction has a peak position of 435 mV and a peak height of 1.31×10^−7 A; the no elastase control reaction has a peak position of 427 mV and a peak height of 6.86×10^−8 A.

We go through two substances from patent US7803572B2, “Protease detection assay” (Atlas Genetics, Ltd., priority 2003, dated 2010).

Take “FcU-BSA: Bovine serum albumin labelled with 4-(3′-ferrocenylureido)-1-benzoyl groups”: the “peak in voltammograms of digestion” value in data set [1] is recorded as “around 100 mV”.
For “Fc-BSA: Bovine serum albumin labelled with ferrocene methanoyl groups via N-hydroxysuccinimide ester; estimated 10 to 20 ferrocenes per BSA”, the peak position in data set [2] (no elastase control reaction) is recorded as 432 mV; in data set [2] (positive reaction, tris HCl pH 8.5, 37° C. for 1 hour), 430 mV; in data set [3] (no elastase control reaction (so in the source)) it was 427 mV; in data set [3] (positive reaction, 37° C. for 1 hour), 435 mV. Further, the “peak in voltammograms of digestion” value in data set [1] is given as “around 400 mV”.
